These are yes or no findings as the source states them, for the method shown. In cells and extracts the contact can be indirect. Some entries that bind do so weakly or less than the wild type. Where a sequence is shown, tags or fusion partners need not be part of it.
Target: FLAG-PGRN (progranulin) (UniProt P28799)
Experiment: co-IP

Amino acid sequences for entries named in this document (tags omitted). Residues count along the entry.
UniProt P28799, residues 18-593: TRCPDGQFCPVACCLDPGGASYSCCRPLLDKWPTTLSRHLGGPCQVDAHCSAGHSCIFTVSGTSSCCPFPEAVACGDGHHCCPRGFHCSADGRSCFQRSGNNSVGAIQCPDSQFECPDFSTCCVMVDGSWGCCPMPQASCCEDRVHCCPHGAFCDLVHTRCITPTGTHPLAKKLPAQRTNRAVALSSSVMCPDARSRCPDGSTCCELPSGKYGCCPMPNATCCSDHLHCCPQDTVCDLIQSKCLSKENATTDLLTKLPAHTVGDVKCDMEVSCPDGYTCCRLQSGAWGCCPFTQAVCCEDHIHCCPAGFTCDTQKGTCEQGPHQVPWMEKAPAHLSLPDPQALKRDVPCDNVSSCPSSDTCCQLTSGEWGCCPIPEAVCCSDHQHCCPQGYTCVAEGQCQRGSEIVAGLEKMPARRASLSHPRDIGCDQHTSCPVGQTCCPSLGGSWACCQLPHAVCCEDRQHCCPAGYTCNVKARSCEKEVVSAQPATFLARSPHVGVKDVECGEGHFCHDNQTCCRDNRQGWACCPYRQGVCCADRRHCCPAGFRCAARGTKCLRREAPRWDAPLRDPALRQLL

binding: binds
B1: β-glucocerebrosidase (GCase), non-tagged human GBA (enzyme, UniProt P04062 40-536)
chain: ARPCIPKSFGYSSVVCVCNATYCDSFDPPTFPALGTFSRYESTRSGRRMELSMGPIQANHTGTGLLLTLQPEQKFQKVKGFGGAMTDAAALNILALSPPAQNLLLKSYFSEEGIGYNIIRVPMASCDFSIRTYTYADTPDDFQLHNFSLPEEDTKLKIPLIHRALQLAQRPVSLLASPWTSPTWLKTNGAVNGKGSLKGQPGDIYHQTWARYFVKFLDAYAEHKLQFWAVTAENEPSAGLLSGYPFQCLGFTPEHQRDFIARDLGPTLANSTHHNVRLLMLDDQRLLLPHWAKVVLTDPEAAKYVHGIAVHWYLDFLAPAKATLGETHRLFPNTMLFASEACVGSKFWEQSVRLGSWDRGMQYSHSIITNLLYHVVGWTDWNLALNPEGGPNWVRNFVDSPIIVDITKDTFYKQPMFYHLGHFSKFIPEGSQRVGLVASQKNDLDAVALMHPDGSAVVVVLNRSSKDVPLTIKDPAVGFLETISPGYSIHTYLWRRQ
